Measurements from the supplement of paper PMC12823440, “Inhibitors supercharge kinase turnover through native proteolytic circuits” (Nature, 2025).
Counter-ions that a name gives are not always drawn. Some of the results follow. The calls rarely recur for the same compound in another form.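 Kinases, fused to nanoluciferase, were expressed in K562 cells; luminescence was measured every 4 h from 2 to 18 h as percent of control (DMSO = 100%, positive control = 0%). A time point is decreased if signal falls significantly (2 sigma). Hits were called by the authors by a rule that is not shown; the count of time points alone does not decide it.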

Amino acid sequences for entries named in this document (tags omitted). A change or cut given only in a name is not applied to a line headed by its entry.
UniProt P42680: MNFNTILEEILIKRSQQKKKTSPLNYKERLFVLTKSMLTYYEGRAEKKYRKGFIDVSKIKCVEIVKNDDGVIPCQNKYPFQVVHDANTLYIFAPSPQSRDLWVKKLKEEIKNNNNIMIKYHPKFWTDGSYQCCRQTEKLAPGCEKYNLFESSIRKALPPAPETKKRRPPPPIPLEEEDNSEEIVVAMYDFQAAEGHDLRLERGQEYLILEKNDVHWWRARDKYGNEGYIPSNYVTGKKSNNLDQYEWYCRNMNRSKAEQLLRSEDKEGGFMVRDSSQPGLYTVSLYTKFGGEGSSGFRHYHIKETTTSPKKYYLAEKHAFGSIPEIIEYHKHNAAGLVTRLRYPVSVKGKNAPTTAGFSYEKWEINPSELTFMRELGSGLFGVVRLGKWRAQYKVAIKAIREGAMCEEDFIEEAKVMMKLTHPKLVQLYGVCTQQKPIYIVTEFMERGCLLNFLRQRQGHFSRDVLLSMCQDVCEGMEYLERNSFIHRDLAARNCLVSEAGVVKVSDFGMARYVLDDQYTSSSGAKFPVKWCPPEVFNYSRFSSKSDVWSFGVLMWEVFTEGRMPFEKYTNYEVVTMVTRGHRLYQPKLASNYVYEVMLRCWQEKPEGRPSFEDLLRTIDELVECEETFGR

biological target: TEC (UniProt P42680); test: kinase-Nluc reporter destabilization hit call (1 = scored as downregulated) (binary); higher = compound decreases kinase abundance; settings: K562; 2-18 h

kinase-Nluc reporter destabilization hit call, inactive:
N#Cc1cnc2c(Cl)cc(NCc3cn(CCN4CCCCCC4)nn3)cc2c1Nc1ccc(F)c(Cl)c1 [Cot inhibitor-1] (10 µM) 0
Cc1cc(Nc2cc(N)ncn2)c(=O)n2c1C(=O)NC21CCCCC1 [Tomivosertib] (10 µM) 0
CC(Cc1ccc(O)c(O)c1)C(C)Cc1ccc(O)c(O)c1 (centres undefined) [Nordihydroguaiaretic acid] (2.5 µM) 0
CNC(=O)c1ccc2c(C(=Nc3cccc(CN(C)C)c3)c3ccccc3)c(O)[nH]c2c1 [MEK inhibitor] (10 µM) 0
COC(=O)[C@H](CCSC)NC(=O)c1ccc(NC[C@@H](N)CS)cc1-c1ccccc1 [FTI-277 (hydrochloride)] (10 µM) 0
C=CC(=O)Nc1ccc(C(=O)Nc2[nH]nc3c2CN(C(=O)N[C@H](CN(C)C)c2ccccc2)C3(C)C)cc1 (10 µM) 0
CCN(CC)CCCC(C)Nc1nc(C)cc(Nc2ccc3nc(C)cc(N)c3c2)n1 (centres undefined) (10 µM) 0
COc1cc(F)ccc1-c1ncnc(Nc2cccc(C[S@](C)(=N)=O)c2)n1 [Atuveciclib] (2.5 µM) 0
O=C(c1cccc(Cl)c1F)N1CCN(Cc2cccc(Nc3nccs3)n2)CC1 (2.5 µM) 0
N#Cc1ccc(-c2cnc3ccc(-c4ccc(C(=O)N5CCOCC5)cc4)cn23)cc1 (10 µM) 0
Cc1ccc(C(=O)NC2CC2)cc1-n1ncc(C(=O)c2cccc(C#N)c2)c1N [Acumapimod] (10 µM) 0
N#Cc1ccc(-c2cnc3[nH]cc(NC(=O)c4cccnc4)c3c2)cc1 (10 µM) 0
CC1(N)CCN(c2cccnc2NC(=O)c2nc(-c3ncccc3C(F)(F)F)cnc2N)CC1 [Darovasertib] (10 µM) 0
COc1cc(N2CCC(N3CCN(C)CC3)CC2)ccc1Nc1ncc(Cl)c(-c2c[nH]c3ccccc23)n1 (2.5 µM) 0
CN1CCN(c2ccc(Nc3ncc4cc(C#N)c(=O)n(C5CCCC5)c4n3)cc2)CC1 (10 µM) 0
CO[C@H]1CC[C@H](N2C(=O)CNc3ncc(-c4ccc(C(C)(C)O)nc4)nc32)CC1 (2.5 µM) 0
Cc1c(C(=O)Nc2ccc(Oc3ccnc4[nH]cc(-c5ccccc5)c34)c(F)c2)c(=O)n(-c2ccc(F)cc2)n1C (10 µM) 0
COc1ccc(Nc2ncc(C(F)(F)F)c(NC3CC3)n2)cc1OC (10 µM) 0
C[C@@H]1O[C@@H](Oc2cc(O)c3c(=O)c(O[C@@H]4O[C@@H](C)[C@H](O)[C@@H](O)[C@H]4O)c(-c4ccc(O)cc4)oc3c2)[C@H](O)[C@H](O)[C@H]1O [Kaempferitrin] (10 µM) 0
COC(=O)Nc1ccc(-c2nc(N3CCOCC3)c3cnn(C4CCN(Cc5cccnc5)CC4)c3n2)cc1 (10 µM) 0
CC(C)Oc1ccc(F)c(-c2cnc(N)c(C(=O)Nc3cnccc3N3CCC[C@@H](C(=O)O)C3)n2)c1 (2 µM) 0
O=Nc1c(-c2c(O)[nH]c3cc(Br)ccc23)[nH]c2ccccc12 [GSK 3 Inhibitor IX] (2.5 µM) 0
NCC1CCC(CNc2nc(NCc3ccccc3OC(F)(F)F)ncc2[N+](=O)[O-])CC1 (centres undefined) [PKC-theta inhibitor] (10 µM) 0
N[C@@H]1CCCN(c2c(/C=C3\SC(=O)NC3=O)cccc2-c2ccccc2)C1 (10 µM) 0
CCn1c(-c2nonc2N)nc2c(C#CC(C)(C)O)ncc(OC[C@H]3CCCNC3)c21 (10 µM) 0
CNC(=O)c1cc2c(Oc3ccc(NC(=O)C4(C(=O)Nc5ccc(F)cc5)CC4)cc3)ccnc2cc1OC (2.5 µM) 0
C=CC(=O)N1CC[C@@H](Oc2nc(Nc3ccc(N4CCC(N5CCN(C)CC5)CC4)cc3)c(C(N)=O)nc2CC)C1 [Naquotinib (mesylate)] (2.5 µM) 0
C=CC(=O)Nc1cc(Nc2nccc(-c3cn(C)c4ccccc34)n2)c(OC)cc1OCCN(C)C [Rezivertinib] (2.5 µM) 0
Oc1c(F)cc(-c2cnccc2-c2ccc(N3CCOCC3)cc2)cc1F (10 µM) 0

An excerpt from above in order of number of heavy atoms, rising:
kinase-Nluc reporter destabilization hit call, inactive:
CC(Cc1ccc(O)c(O)c1)C(C)Cc1ccc(O)c(O)c1 (centres undefined) [Nordihydroguaiaretic acid] (2.5 µM) 0
O=C(c1cccc(Cl)c1F)N1CCN(Cc2cccc(Nc3nccs3)n2)CC1 (2.5 µM) 0
CC(C)Oc1ccc(F)c(-c2cnc(N)c(C(=O)Nc3cnccc3N3CCC[C@@H](C(=O)O)C3)n2)c1 (2 µM) 0
